Source: PMC7819943, “Rice protein-binding microarrays: a tool to detect cis-acting elements near promoter regions in rice”
The list shows a part of the results.

Chains of the proteins cited; added tags and fusions are not shown.
UniProt Q0JBA9, entry or part of it: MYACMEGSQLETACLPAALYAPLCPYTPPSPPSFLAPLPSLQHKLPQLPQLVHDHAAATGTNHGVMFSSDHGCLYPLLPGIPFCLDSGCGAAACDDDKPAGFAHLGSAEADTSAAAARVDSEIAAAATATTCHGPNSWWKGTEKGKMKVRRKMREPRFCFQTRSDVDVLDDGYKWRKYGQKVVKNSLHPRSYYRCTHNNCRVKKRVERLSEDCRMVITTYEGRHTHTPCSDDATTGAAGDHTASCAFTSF

Target: OsWRKY34 (Oryza sativa, UniProt Q0JBA9 1-250)
Assay: protein-binding microarray (RPBM); PBS, 2% BSA, 51.3 ng/ul salmon testes DNA, 50 uM zinc acetate, 200 nM TF, 25 C, 1 h; high values mean tight binding
Conditions: protein: recombinant; tags: N-terminal polyhistidine and DsRed monomer fusion (pET32a); label: CyDye5-dUTP incorporated in the synthesized complementary strand; 3' TTTTT single-stranded linker to array surface; dsDNA, one strand shown
Method in brief: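 The binding signal for each feature is its fluorescence intensity in arbitrary units. An Axon 4000B scanner was used to read a custom Agilent array that had been made double-stranded with Cy5-dUTP primer extension, blocked with 2% BSA, incubated at 25 °C for 1 h with 200 nM protein in PBS, 2% BSA, salmon testes DNA and 50 µM zinc acetate, and washed. The protein was an N-terminal polyhistidine–DsRed transcription factor fusion from E. coli BL21-CodonPlus, purified on Ni–NTA.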

Row | Sequence | binding signal
1 | CGGAGTGTTCCCAGTACAGCACCTGCCACATTTACCAGTCCGGAGTCACCTAGTGCAG | 9280 fluorescence intensity (a.u.)
2 | CGGTCCTTTTCTGCTTTGGTTGGTTCGCCTCTTATATCCTCGGAGTCACCTAGTGCAG | 10900 fluorescence intensity (a.u.)
3 | TTATTAATTGGATGTTAACTTTGATATCTTTGTTTACTAACGGAGTCACCTAGTGCAG | 8080 fluorescence intensity (a.u.)
4 | CTTCTCTTCGACCACGCGAACACCTATCCATTCTGTGAGGCGGAGTCACCTAGTGCAG | 10500 fluorescence intensity (a.u.)
5 | GCAGTCTTGTAGTCTCGTGCACCAATCGTCGCGCCGCGGCCGGAGTCACCTAGTGCAG | 8400 fluorescence intensity (a.u.)
6 | GCGGGCGTTCGGTAGACAGTTTGTTTCTCTAATCACTTCCCGGAGTCACCTAGTGCAG | 11800 fluorescence intensity (a.u.)
7 | CGCTGAATCTGAAATTCTGAATGCATTTTCTATTTCTTCTCGGAGTCACCTAGTGCAG | 8200 fluorescence intensity (a.u.)
8 | TTTATTAGTTTGTGTCCTGGTTTTCTTTTTCAGTTAGATTCGGAGTCACCTAGTGCAG | 8430 fluorescence intensity (a.u.)
9 | AGACTTTTTTTTAATATGACATATTTTTCTTTCCATTTTTCGGAGTCACCTAGTGCAG | 10900 fluorescence intensity (a.u.)
10 | GCGCCCTTGCCTGCTCTGCCTCCATATGCTGCTCGCCGGCCGGAGTCACCTAGTGCAG | 15600 fluorescence intensity (a.u.)
11 | GTGTGTTTTGAGTGTTAGTTTTCGACTATCATGTCTGCTTCGGAGTCACCTAGTGCAG | 10800 fluorescence intensity (a.u.)
12 | TTCTGGTTCTTGGACTCCCTGTTCTTGGTTCCTGCATTTCCGGAGTCACCTAGTGCAG | 14200 fluorescence intensity (a.u.)
13 | TAACTTACATATATGCCCCACATTTCTTGTTTTAATTTTTCGGAGTCACCTAGTGCAG | 11400 fluorescence intensity (a.u.)
14 | TCAGGCTCAACTGTAGCTCATGGTCTCATCCCAGGGAGATCGGAGTCACCTAGTGCAG | 8240 fluorescence intensity (a.u.)
15 | TGCTTGTGGACTACCCTTTCTTCTTCTGTTATTACCAGGTCGGAGTCACCTAGTGCAG | 10800 fluorescence intensity (a.u.)
16 | CCTCGTCCAGGATCGCCATCTCCTGACCCACCGCGCGCCCCGGAGTCACCTAGTGCAG | 8130 fluorescence intensity (a.u.)
17 | CATGTTGACTCTGTTTAATTCCACATCGTCTTCCTTGATCCGGAGTCACCTAGTGCAG | 12800 fluorescence intensity (a.u.)
18 | ACGACTCAGCCCCACCGCGCCGCCTCCGACTCCACCCCATCGGAGTCACCTAGTGCAG | 9200 fluorescence intensity (a.u.)
19 | CATCACCATCACCCATGTCCAATTATCAACTATGTCGGTTCGGAGTCACCTAGTGCAG | 9060 fluorescence intensity (a.u.)
20 | AATTGAAGATGTTTTTGCTGGTATTTTGGTACGTCATCCGCGGAGTCACCTAGTGCAG | 8560 fluorescence intensity (a.u.)
21 | GAAGCCATATCATCTTAATTGTTTTTAGCTCTTCTCTCATCGGAGTCACCTAGTGCAG | 10300 fluorescence intensity (a.u.)

From entry 5 to 7, as listed above:
Row | Sequence | binding signal
5 | GCAGTCTTGTAGTCTCGTGCACCAATCGTCGCGCCGCGGCCGGAGTCACCTAGTGCAG | 8400 fluorescence intensity (a.u.)
6 | GCGGGCGTTCGGTAGACAGTTTGTTTCTCTAATCACTTCCCGGAGTCACCTAGTGCAG | 11800 fluorescence intensity (a.u.)
7 | CGCTGAATCTGAAATTCTGAATGCATTTTCTATTTCTTCTCGGAGTCACCTAGTGCAG | 8200 fluorescence intensity (a.u.)

(continued)

Row | Sequence | binding signal
22 | ATCCATAACCCTGACAGGTCTTGTTTTACTTTCTTTTCCACGGAGTCACCTAGTGCAG | 8150 fluorescence intensity (a.u.)
23 | GCGGCGTGTACTGCCTCGCCGTCGACGGCTGCCGCGGGTCCGGAGTCACCTAGTGCAG | 8220 fluorescence intensity (a.u.)
24 | ATTGACATTTTGTTGACAATACCATTATACACTCACATTTCGGAGTCACCTAGTGCAG | 8300 fluorescence intensity (a.u.)
25 | TCTTTTGTATAGCACTGTACCGTATACAACACTGAATACACGGAGTCACCTAGTGCAG | 8080 fluorescence intensity (a.u.)
26 | ACTTTTGACTTTTTACTATTGAGCTCTATCTATTCACTTACGGAGTCACCTAGTGCAG | 13900 fluorescence intensity (a.u.)
27 | TATCATCACATCTCATTTTCTCCTTCCATCGCAGATATTTCGGAGTCACCTAGTGCAG | 9500 fluorescence intensity (a.u.)
28 | TCCTTTCTTTCTTTCTTTCTGTTAGTTCCATTCAAGTATGCGGAGTCACCTAGTGCAG | 9010 fluorescence intensity (a.u.)
29 | TCCCATTGCTTGCTTTCCTCGACACACTCTTCAAAGAGAACGGAGTCACCTAGTGCAG | 10000 fluorescence intensity (a.u.)
30 | TGGTCGTTTTGACTTTCTTCTTGCAATGTTTGATTATTTGCGGAGTCACCTAGTGCAG | 10100 fluorescence intensity (a.u.)
31 | ATGAAGTTTGGATCGGTGGATGGTTTGGGGAAGTGCGGCACGGAGTCACCTAGTGCAG | 9320 fluorescence intensity (a.u.)
32 | TATTTGACTAGTCATGCAATATCTCTAGTGACTATACAAGCGGAGTCACCTAGTGCAG | 11600 fluorescence intensity (a.u.)
33 | TTGCTATGTATGGGTATTGCTCTGTATCATGTGGGTACAACGGAGTCACCTAGTGCAG | 9970 fluorescence intensity (a.u.)
34 | TGGATCACTCAATTGTTTTTTTTTTGTTTTTTCCTTTATTCGGAGTCACCTAGTGCAG | 9740 fluorescence intensity (a.u.)
35 | ATCGCTCTTGCCCTTTGCAGTCTCTGCTTTGTTTTAGAGACGGAGTCACCTAGTGCAG | 10100 fluorescence intensity (a.u.)
36 | TTCCTGGTTTTTCTGTTGAGGAAAAGATCGCCCCTTATCCCGGAGTCACCTAGTGCAG | 10100 fluorescence intensity (a.u.)
37 | TGAGGGGAGGGTGGTAAAGCATGTTGAGGACTTTACATTTCGGAGTCACCTAGTGCAG | 10900 fluorescence intensity (a.u.)
38 | TTGTCCACATTTAATACTCTATGCATGTGTCCAAACATTTCGGAGTCACCTAGTGCAG | 8040 fluorescence intensity (a.u.)
39 | CCTATCATTTGATTCATTGTTAAATATACTTTTATGTATACGGAGTCACCTAGTGCAG | 8270 fluorescence intensity (a.u.)
40 | GCCACTACTCATCACTACTTAAGATTCCCATGCAGGACTACGGAGTCACCTAGTGCAG | 9170 fluorescence intensity (a.u.)
41 | ATACAACTTCGTCTGGCGCCCTCAATCGATCTCGCTCTATCGGAGTCACCTAGTGCAG | 9870 fluorescence intensity (a.u.)
42 | TATTTTGGCATTGTGTCGTGTCTTGTCTTGTGTGCTGCAACGGAGTCACCTAGTGCAG | 13800 fluorescence intensity (a.u.)
